Test results: PubChem BioAssay AID504467 (National Center for Advancing Translational Sciences (NCATS), 2011)
In all, about 330,000 compounds went through this assay and about 7,700 (2.3%) were called active. Inconclusive results, whose numbers are uncertain, are shown with a selection of clear calls. Calls follow the shape of the dose curve; as a rule, active = well fitted inhibition curve with a large enough effect; inconclusive = small, poorly fitted or top-dose-only effect, or effect the other way; inactive = flat fitted curve, though single readings scatter. A potency beside an inconclusive call is a rough fit, not a confirmed value.

Assay: qHTS screen for small molecules that inhibit ELG1-dependent DNA repair in human embryonic kidney (HEK293T) cells expressing luciferase-tagged ELG1; also: nearly all actives have a fitted effect of over 55% in size
Conditions: HEK293T ELG1-luciferase reporter, luminescence, 16 h, DNA damage induced by 5-fluorouridine; series mostly up to 46.1 µM
In short: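 5-Fluorouridine DNA damage + compound/DMSO, 2,000 cells/well, 16 h, 37 °C/5% CO2. ONE-Glo, 30 min RT, luminescence. Readout = decrease in reporter signal.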
Potency is read from the fitted curve at half-maximal effect.

Question: For Cc1ccc(C2C(C#N)=C(N)Oc3n[nH]c(-c4cccs4)c32)cc1 (stereo not given), which Potency is on record?
Answer: The Potency was “inactive”.

Question: With CN(C)S(=O)(=O)c1ccc(NC(=S)NC(=O)c2cccs2)cc1 as the compound, how does the Potency read?
Answer: Its Potency is “inactive”.

Question: For Cc1ccc(N2C(=O)c3ccccc3C2C(=O)c2cc(C)ccc2O)cc1 (stereo not given), which Potency is on record?
Answer: The Potency was inconclusive: 13 µM [activator, single point].

Question: For O=S(=O)(c1ccc(Cl)cc1)N1CCC(n2cccc2)CC1, which Potency is on record?
Answer: Its Potency is inconclusive: 16.4 µM [inhibitor, partial curve, poor fit].

Question: For COc1ccc(Cl)cc1NC(=S)NCc1ccco1, which Potency is on record?
Answer: The Potency was “inactive”.

Question: For CC(=O)N1CCN(Cc2nc3cc(NC(=O)c4ccccc4C)ccc3n2C)CC1, which Potency is on record?
Answer: Its Potency is “inactive”.

Question: With O=C(CONS(=O)(=O)c1ccc(Cl)cc1)NCCNc1ncc(C(F)(F)F)cc1Cl as the compound, how does the Potency read?
Answer: The Potency was inconclusive: 20.6 µM [inhibitor, partial curve, poor fit].

Question: For CCc1ccc2c(c1)c(N=NC1=NC(=O)CS1)c(O)n2CC, which Potency is on record?
Answer: Its Potency is “inactive”.

Question: Which Potency does the source give for COc1cccc(-c2ccc(-c3noc(-c4cccs4)n3)c(OC)n2)c1 here?
Answer: The Potency was inconclusive: 18.4 µM [activator, partial curve].

Question: With O=C(N/N=C/c1ccc(OC(=O)c2cccs2)cc1)c1ccccn1 as the compound, how does the Potency read?
Answer: The Potency was inconclusive: 16.4 µM [activator, partial curve, poor fit].

Question: For O=C1NC(=O)/C(=C/c2ccc(OS(=O)(=O)c3ccc(F)cc3F)cc2)N1, which Potency is on record?
Answer: The Potency was inconclusive: 25.9 µM [inhibitor, single point].

Question: For O=C(CNc1cc(S(=O)(=O)N2CCOCC2)ccc1NCC1CCCO1)Nc1ccc(F)c(F)c1 (stereo not given), which Potency is on record?
Answer: Its Potency is inconclusive: 13 µM [inhibitor, partial curve].

Question: With O=C(COC(=O)c1ccccc1F)Nc1ccc(S(=O)(=O)N2CCOCC2)cc1 as the compound, how does the Potency read?
Answer: The Potency was “inactive”.

Question: For CCC(=O)NC(c1ccco1)c1cc(Cl)c2cccnc2c1OC (stereo not given), which Potency is on record?
Answer: The Potency was “inactive”.

Question: Which Potency does the source give for CN(C)C(=O)CSc1nnc(-c2ccc(F)cc2)c2ccccc12 here?
Answer: The Potency was inconclusive: 9.2 µM [activator, partial curve, poor fit].

Question: Which Potency does the source give for CCn1cc(C(=O)NCC2CCCO2)c(=O)c2cc(S(=O)(=O)N3CCCCC3)ccc21 (stereo not given) here?
Answer: Its Potency is “inactive”.

Question: For NS(=O)(=O)c1ccc(CCNc2nc(CN3CCOCC3)nc3sc4c(c23)CCC4)cc1, which Potency is on record?
Answer: Its Potency is inconclusive: 25.9 µM [inhibitor, partial curve, poor fit].

Question: Which Potency does the source give for CCC(=O)N1CCc2cc(S(=O)(=O)CCC(=O)NCCc3ccccc3)ccc21 here?
Answer: The Potency was “inactive”.

Question: For COc1ccccc1N1CCN(C(=O)CCc2nnc3ccc(N4CCC(C)CC4)nn23)CC1, which Potency is on record?
Answer: The Potency was inconclusive: 23.1 µM [inhibitor, partial curve, poor fit].

Question: Which Potency does the source give for COc1ccc(/C=C/c2n[nH]c(=O)c(C#N)c2C)cc1 here?
Answer: Its Potency is “inactive”.

Question: For c1ccc(-n2ncc3c(NCCN4CCCCC4)ncnc32)cc1, which Potency is on record?
Answer: Its Potency is inconclusive: 11.2 µM [activator, partial curve].

Question: For N#Cc1cc([N+](=O)[O-])ccc1N1CCN(c2ccccc2O)CC1, which Potency is on record?
Answer: The Potency was inconclusive: 16.4 µM [inhibitor, single point].

Question: For O=C(Nc1nc(-c2ccc(S(=O)(=O)N3CCCC3)cc2)cs1)c1cccs1, which Potency is on record?
Answer: Its Potency is active: 8.2 µM.

Question: Which Potency does the source give for CCOc1ccc(N=c2scc(-c3ccccc3)n2CCO)cc1 here?
Answer: Its Potency is inconclusive: 32.6 µM [inhibitor, single point].

Question: With Clc1cccc(-c2csc(Nc3cccnc3)n2)c1 as the compound, how does the Potency read?
Answer: The Potency was “inactive”.

Question: For COc1ccc(NC(=O)CSc2nnc(COc3ccccc3)n2Cc2ccco2)cc1OC, which Potency is on record?
Answer: The Potency was inconclusive: 20.6 µM [inhibitor, single point].

Question: Which Potency does the source give for CCOc1ccc(N/C=C/C(=O)c2ccccc2)cc1 here?
Answer: The Potency was inconclusive: 0.58 µM [activator, full curve].

Question: With COc1ccc(CCNC(=O)c2ccccc2Cl)cc1OC as the compound, how does the Potency read?
Answer: Its Potency is “inactive”.

Question: For CCC(=O)c1ccc(OCC(=O)NCc2ccccc2CN2CCCC2)cc1, which Potency is on record?
Answer: Its Potency is inconclusive: 29.1 µM [activator, partial curve, poor fit].

Question: Which Potency does the source give for O=C(C1CCC1)N(CCc1ccccc1)Cc1nc2ccccc2c(=O)[nH]1 here?
Answer: The Potency was “inactive”.

Question: Which Potency does the source give for CCCOC(=O)C1=C(C)N(C)C(=O)NC1c1cc2c(cc1[N+](=O)[O-])OCO2 (stereo not given) here?
Answer: Its Potency is “inactive”.

Question: For O=C(CCC1CCCC1)Nc1ccc(C(=O)NCc2cccnc2)cc1, which Potency is on record?
Answer: The Potency was active: 16.4 µM.

Question: Which Potency does the source give for Cc1cc2cc(CNC(=O)c3ccc4c(c3)OCO4)ccc2[nH]1 here?
Answer: The Potency was inconclusive: 20.6 µM [activator, partial curve, poor fit].

Question: For CC1CCCCN1C(=O)CSc1nc(C2CC2)nc2c1cnn2-c1ccccc1 (stereo not given), which Potency is on record?
Answer: Its Potency is inconclusive: 20.6 µM [inhibitor, single point].

Question: With CCOC(=O)C(C(=O)OCC)C(Nc1cccc(Br)c1)c1ccccc1 (stereo not given) as the compound, how does the Potency read?
Answer: Its Potency is inconclusive: 25.9 µM [inhibitor, single point].

Question: Which Potency does the source give for COc1ccc(C(=O)NC(=S)Nc2ccc(CN3CCOCC3)cc2)cc1Br here?
Answer: Its Potency is active: 23.1 µM.

Question: With COc1ccc(-c2csc(NC(=O)CSc3nc(SC)ns3)n2)cc1 as the compound, how does the Potency read?
Answer: The Potency was inconclusive: 20.6 µM [activator, partial curve, poor fit].

Question: Which Potency does the source give for O=C(CN1C(=O)S/C(=C/c2ccccn2)C1=O)N1CCOCC1 here?
Answer: The Potency was inconclusive: 18.3 µM [activator, single point].

Question: For Cc1cc(C)nc(-n2nc(C)c(Oc3ccccc3O)c2C)n1, which Potency is on record?
Answer: Its Potency is inconclusive: 0.146 µM [inhibitor, partial curve, poor fit].

Question: With COc1cc(Cl)c(C)cc1NC(=O)CSc1sc2c(O)cc(=O)[nH]c2c1C#N as the compound, how does the Potency read?
Answer: Its Potency is “inactive”.

Question: With O=C(/C=C/c1cccc([N+](=O)[O-])c1)Nc1cccc(NC(=O)c2cccs2)c1 as the compound, how does the Potency read?
Answer: Its Potency is active: 18.4 µM.

Question: Which Potency does the source give for COc1ccc(NS(=O)(=O)c2cc(NC(=O)CC(=O)c3ccc([N+](=O)[O-])cc3)ccc2C)cc1 here?
Answer: Its Potency is inconclusive: 29.1 µM [inhibitor, single point].

Question: For CCC(=O)NC(=S)Nc1ccc(N2CCN(C(=O)c3ccc(Cl)cc3)CC2)cc1, which Potency is on record?
Answer: The Potency was inconclusive: 0.0461 µM [activator, full curve, poor fit].

Question: Which Potency does the source give for CCC(Sc1nc2n[nH]c(C)c2c(=N)n1-c1cc(Cl)ccc1C)C(=O)N1CCOCC1 (stereo not given) here?
Answer: Its Potency is “inactive”.

Question: For C[C@H](NC(=O)C1CCN(S(=O)(=O)c2ccccc2)CC1)C(=O)NCc1ccc(F)cc1, which Potency is on record?
Answer: The Potency was “inactive”.
